According to US8383130B2 (Senju Pharmaceutical Co., Ltd., priority 2008, dated 2013):
End groups of sequences in plain letters are not given here.

Assay: general procedure: Fmoc solid-phase peptide synthesis; HBTU
Settings: whole synthesis, HPLC A/A %

Row | Sequence | final HPLC purity
1 | EISGPAEPASPPETTTTAQETSAAAVQGTAKVT (listed as Homo sapiens) | 99.53%
2 | EISGPAEPASPPETTTTAQETSAAAVQGTAKVTSSRQELNPLKSIVEKSILLTEQALAKA (listed as Homo sapiens) | 87.47%
3 | QGTAKVTSSRQELNPL (listed as Homo sapiens) | 98.01%
4 | QGTAKVTSSRQELNPLKSIVEKSILLTEQALAKA (listed as Homo sapiens) | 99.26%
5 | QGTAKVTSSRQELNPLKSIVEKSILLTEQALAKAGKGMHGGVPGG (listed as Homo sapiens) | 96.88%
6 | QGTAKVTSSRQELNPLKSIVEKSILLTEQALAKAGKGMHGGVPGGKQFIENGSEF (listed as Homo sapiens) | 95.15%
7 | VQGTAKVTSSRQELNPLKSIVEKSILLTEQALAKA (listed as Homo sapiens) | 96.207%
